Source: PubChem BioAssay AID1259308 (NCATS, 2017)

- Aim: 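Candidate targets for better recombinant protein yield in mammalian cells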 (primary screen)
- System: human HEK293 embryonic kidney cells stably expressing firefly luciferase (HEK-CMV-Luc2-Hygro)
- Reagent: single siRNA against human genes, 0.8 pmol siRNA per well
- Duration: 72 h
- Measured: 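Luciferase light (ONE-Glo) measured on one replicate plate set and viability (CellTiter-Glo) on the other, scaled to a negative control siRNA, with robust z-scores and luciferase per cell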
- Reading the numbers: total luciferase, z-score and total luciferase, % of control: higher = more reporter protein produced; luciferase per cell, z-score: higher = more reporter output per viable cell; viable cells, % of control: higher = more viable cells
- Call rule: 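An siRNA counts as active if its total luciferase robust z-score exceeds 3; genes with two or more such siRNAs out of three were retested with fresh siRNAs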
- Calls: active = raised luciferase; inactive = no rise
In all, the deposit lists about 59,000 reagents; shown is a part drawn at random. About 1,510 of them (2.6%) were called active. 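Calls use total luciferase alone and ignore viability, so some active siRNAs may act by altering cell number.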 Unmarked entries are inactive. The numbers tell different reagents against one gene apart.

Target gene	siRNA no.	total luciferase, z-score	total luciferase, % of control	luciferase per cell, z-score	viable cells, % of control
WDR70 (WD repeat domain 70)	1	0.427	90.4	0.11	98.1
WDR70 (WD repeat domain 70)	2	2.38	129	1.58	95.3
WDR70 (WD repeat domain 70)	3	-0.0757	80.4	0.42	80.4
RAD21L1 (RAD21 cohesin complex component like 1)	1	1.65	115	1.16	94.3
RAD21L1 (RAD21 cohesin complex component like 1)	2	2.81	138	2.43	81.2
RAD21L1 (RAD21 cohesin complex component like 1)	3	-1.3	56	-1.43	91.1
PNLDC1 (PARN like ribonuclease domain containing exonuclease 1)	1	1.06	103	1.3	81.7
PNLDC1 (PARN like ribonuclease domain containing exonuclease 1)	2	-0.00467	81.8	-0.105	94
PNLDC1 (PARN like ribonuclease domain containing exonuclease 1)	3	-1.04	61.1	-0.639	80.8
UFD1 (ubiquitin recognition factor in ER associated degradation 1)	1	-0.72	67.6	-0.519	86.5
UFD1 (ubiquitin recognition factor in ER associated degradation 1)	2	-0.123	79.4	-0.178	93
UFD1 (ubiquitin recognition factor in ER associated degradation 1)	3	1.15	105	0.658	98.4
TXNL4B (thioredoxin like 4B)	1	-0.197	78	-0.427	97.5
TXNL4B (thioredoxin like 4B)	2	1.97	121	1.31	95.9
TXNL4B (thioredoxin like 4B)	3	1.32	108	1.49	81.6
ZNF525 (zinc finger protein 525)	1	0.864	99.1	1.07	83.5
ZNF525 (zinc finger protein 525)	2	4.37 (active)	169	2.51	97.4
ZNF525 (zinc finger protein 525)	3	0.358	89	0.304	91.8
OR6T1 (olfactory receptor family 6 subfamily T member 1)	1	-0.414	73.6	-0.973	106
OR6T1 (olfactory receptor family 6 subfamily T member 1)	2	-0.255	76.8	-0.0684	87.4
OR6T1 (olfactory receptor family 6 subfamily T member 1)	3	-0.3	75.9	-0.701	102
ANKRD28 (ankyrin repeat domain 28)	1	6.04 (active)	202	3.77	83.7
ANKRD28 (ankyrin repeat domain 28)	2	-1.15	59.1	-2.07	114
ANKRD28 (ankyrin repeat domain 28)	3	0.294	87.7	0.764	80.2
ACOT7 (acyl-CoA thioesterase 7)	1	-2.18	38.5	-2.44	81.7
ACOT7 (acyl-CoA thioesterase 7)	2	1.08	103	1.28	82.6
ACOT7 (acyl-CoA thioesterase 7)	3	-0.515	71.6	0.456	71
DEK (DEK proto-oncogene)	1	-0.124	79.4	-0.894	112
DEK (DEK proto-oncogene)	2	-0.824	65.5	-0.58	85.3
DEK (DEK proto-oncogene)	3	0.208	86	-0.0269	96.8
DDX1 (DEAD-box helicase 1)	1	-0.676	68.4	-1.26	107
DDX1 (DEAD-box helicase 1)	2	-0.0554	80.8	-0.736	110
DDX1 (DEAD-box helicase 1)	3	-0.172	78.5	-0.518	100
PDE9A (phosphodiesterase 9A)	1	-0.667	68.6	-0.377	84.7
PDE9A (phosphodiesterase 9A)	2	-0.918	63.6	-1.57	107
PDE9A (phosphodiesterase 9A)	3	1.65	115	2.06	74.5
KCNK4 (potassium two pore domain channel subfamily K member 4)	1	0.282	87.5	0.236	91.9
KCNK4 (potassium two pore domain channel subfamily K member 4)	2	0.603	93.9	0.578	90.1
KCNK4 (potassium two pore domain channel subfamily K member 4)	3	0.000311	81.9	-0.058	92.9

Active calls, among the entries above:
Target gene	siRNA no.	total luciferase, z-score	total luciferase, % of control	luciferase per cell, z-score	viable cells, % of control
ZNF525 (zinc finger protein 525)	2	4.37 (active)	169	2.51	97.4
ANKRD28 (ankyrin repeat domain 28)	1	6.04 (active)	202	3.77	83.7
